Assay results from patent publication US20250122397A1, “FOOD SAFE AQUEOUS INKJET COMPOSITIONS” (Canon Production Printing Holding B.V., priority 2023, published 2025).

Assay: Smell test of aqueous Mg-salt solutions
Conditions: for smell test (pass): 1.5 mol/kg aqueous Mg-salt solution, summary of Table 1; for Smell (Yes/No): magnesium salt 1.5 mol/kg in demineralized water

Row | SMILES | smell test (pass) | Smell (Yes/No)
1 | O=S(=O)([O-])[O-].[Mg+2] [compound 1, Mg-sulfate, reference compound] | pass | No
2 | O=[N+]([O-])[O-].O=[N+]([O-])[O-].[Mg+2] [compound 2, Mg-nitrate, reference compound] | pass | No
3 | CC(=O)[O-].CC(=O)[O-].[Mg+2] [compound 3] |  | Yes
4 | O=C[O-].O=C[O-].[Mg+2] [compound 4] |  | Yes
5 | CC(O)C(=O)[O-].CC(O)C(=O)[O-].[Mg+2] (stereo not shown) [compound 5] |  | No
6 | CCC(=O)[O-].CCC(=O)[O-].[Mg+2] [compound 6] |  | Yes
7 | O=C([O-])C(O)C(O)C(=O)[O-].[Mg+2] (stereo not shown) [compound 7] |  | No
8 | C=C(CC(=O)[O-])C(=O)[O-].[Mg+2] [compound 8, Mg-itaconate] | pass | No
9 | CCCC(=O)[O-].CCCC(=O)[O-].[Mg+2] [compound 9] |  | Yes
10 | O=C([O-])CCC(=O)[O-].[Mg+2] [compound 10, Mg-succinate] | pass | No
11 | O=C([O-])/C=C/C(=O)[O-].[Mg+2] [compound 11] |  | No
12 | C/C=C/C=C/C(=O)[O-].C/C=C/C=C/C(=O)[O-].[Mg+2] [compound 12] |  | No
13 | O=C([O-])CCCC(=O)[O-].[Mg+2] [compound 13] |  | No
14 | CC(=O)CCC(=O)[O-].CC(=O)CCC(=O)[O-].[Mg+2] [compound 14, Mg-levulinate] | pass | No
15 | O=C([O-])CCCCC(=O)[O-].[Mg+2] [compound 15, Mg-adipate] | pass | No
16 | O=C([O-])CC(=O)[O-].[Mg+2] [compound 16] |  | No
17 | O.O.O=C([O-])[C@H](O)[C@@H](O)[C@H](O)[C@H](O)CO.O=C([O-])[C@H](O)[C@@H](O)[C@H](O)[C@H](O)CO.[Mg+2] [compound 17] |  | No
18 | O=C([O-])CC(O)C(=O)[O-].[Mg+2] (stereo not shown) [compound 18] |  | No
19 | O=C([O-])CCCCCC(=O)[O-].[Mg+2] [compound 19] |  | No
